Source: PubChem BioAssay AID2551 (National Center for Advancing Translational Sciences (NCATS), 2010)
About 17,000 (5.5%) of roughly 310,000 compounds were called active. The shares of active, inactive and inconclusive entries below differ from those in the screen. The call rests on the fitted dose curve; in most records, active means well fitted inhibition curve with a large enough effect; inconclusive means small, poorly fitted or top-dose-only effect, or effect the other way; inactive means no such curve, though single readings can be large or run the other way. Potencies beside an inconclusive call are fits to weak or partial responses and may not hold up.

By UniProt entry, the sequences of proteins in these tests, tags left out. Where a name states a change or a piece, a line headed by the entry shows the natural chain unless it says otherwise.
UniProt P51450: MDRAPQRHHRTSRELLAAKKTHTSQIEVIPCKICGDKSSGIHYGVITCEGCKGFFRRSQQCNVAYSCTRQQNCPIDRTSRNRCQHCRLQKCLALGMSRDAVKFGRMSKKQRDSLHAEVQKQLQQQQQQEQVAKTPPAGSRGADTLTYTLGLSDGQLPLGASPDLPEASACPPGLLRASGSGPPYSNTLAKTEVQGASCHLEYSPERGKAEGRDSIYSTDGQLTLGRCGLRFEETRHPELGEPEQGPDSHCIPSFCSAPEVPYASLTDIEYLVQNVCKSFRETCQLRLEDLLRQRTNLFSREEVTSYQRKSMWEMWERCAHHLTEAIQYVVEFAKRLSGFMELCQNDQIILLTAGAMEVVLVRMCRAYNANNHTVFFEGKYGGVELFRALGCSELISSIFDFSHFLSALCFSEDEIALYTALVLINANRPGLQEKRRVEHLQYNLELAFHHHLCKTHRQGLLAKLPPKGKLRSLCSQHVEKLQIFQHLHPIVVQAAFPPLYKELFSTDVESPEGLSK

These compounds were tested against Nuclear receptor ROR-gamma (Mus musculus) (UniProt P51450) (assay: qHTS for inhibitors of ROR gamma transcriptional activity). Conditions: Drosophila S2 Gal4-RORgamma UAS-luciferase reporter, 20 h; activity change, negative = inhibition: at 53.6 µM (top of the series).
In short: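 Drosophila S2 cells stably expressing Gal4-DBD/mouse RORγ fusion under metallothionein promoter plus UAS-luciferase; compound 1 h, then 700 uM CuSO4 induction for 20 h at ambient temperature; inhibition read as reduced luminescence.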
Further: nearly all actives have a fitted effect of over 60% in size.
On the % scale 0 is the no-effect control and ±100 the full control effect; potency means the concentration at half of the fitted maximal effect.

SMILES | activity change, negative = inhibition | Potency
COc1ccc(N2CCN(C(=O)CNC(=O)c3nn(-c4ccc(OC)cc4)c(=O)c4ccccc34)CC2)cc1 | inactive: 6.34% | 
O=C(NCc1cccs1)C(=O)c1cn(CC(=O)N2CCCC2)c2ccccc12 |  | inconclusive: 20 µM [activator, single point]
COc1cccc([C@H](O)Cn2cc(-c3ccc(CON=C(C)C)cc3)nn2)c1 |  | inconclusive: 14.1 µM [activator, single point]
CC(C)(C)n1cnc2cc(NC(=O)c3ccc(Cl)cc3)ccc21 |  | inconclusive: 0.355 µM [activator, full curve, poor fit]
CCOc1ccc2nc(N(CCCN(C)C)C(=O)c3ccc(C(=O)c4ccccc4)cc3)sc2c1 |  | inconclusive: 20 µM [inhibitor, single point]
Cn1c(=O)cnc2cnc(Nc3ccccc3)nc21 |  | inconclusive: 11.2 µM [activator, partial curve]
O=C(CCC1CCCCC1)Nc1c2c(nn1-c1ccc(F)cc1)CS(=O)(=O)C2 | inactive: 9.96% | 
CC(NC(=O)Cc1ccc(Br)cc1)c1ccccc1 (configuration not stated) |  | inconclusive: 35.5 µM [activator, single point]
Cn1cc(Cl)c(C(=O)N/N=C/c2ccc(OS(=O)(=O)c3ccccc3)cc2)n1 |  | inconclusive: 5.62 µM [activator, single point]
Cc1ccc(-c2nc(-c3ccc(Cl)cc3)sc2CC(=O)O)c(C)c1 |  | inconclusive: 35.5 µM [activator, single point]
CCCC[C@@H]1C[C@H]1C(NC(=O)c1ccccc1)c1ccc(C(F)(F)F)cc1 (some centres not stated) |  | active: 15.8 µM
COc1cc(/C=N/N(C)C)cc(Br)c1O |  | inconclusive: 35.5 µM [activator, partial curve, poor fit]
CCCN(S(=O)(=O)c1ccccc1F)S(=O)(=O)c1ccccc1Br | inactive: -13.9% | 
COc1ccc(NC(=O)c2ccc3ccccc3c2)cc1NS(=O)(=O)c1ccc(F)cc1 |  | inconclusive: 7.08 µM [activator, full curve, poor fit]
O=C1C2C3C=CC(C4CC34)C2C(=O)N1/N=C/c1ccc([N+](=O)[O-])o1 (configuration not stated) |  | active: 12.6 µM
COc1ccc(NC(=O)c2cc3n(n2)C(C(F)(F)F)CC(c2ccco2)N3)cc1 (configuration not stated) |  | inconclusive: 35.5 µM [activator, single point]
O=C1CSC(=S)N1/N=C/c1ccc(O)c([N+](=O)[O-])c1 |  | active: 8.91 µM
Fc1ccccc1/C=N/n1c(C2CCCCC2)n[nH]c1=S |  | active: 11.2 µM
COC(=O)c1c(N)n(-c2ccc(N3CCOCC3)cc2)c2nc3ccccc3nc12 |  | inconclusive: 35.5 µM [inhibitor, single point]
O=C(COC(=O)C1CC1)Nc1ccc(Oc2ccccc2)cc1 |  | inconclusive: 0.282 µM [activator, partial curve, poor fit]
N#C/C(=C/c1ccccc1OCc1ccc(F)cc1)c1ccc(C(=O)O)cc1 |  | inconclusive: 0.501 µM [inhibitor, single point]
Cc1oc2cc(O)cc(O)c2c(=O)c1-c1ccc2c(c1)OCCCO2 |  | inconclusive: 11.2 µM [activator, partial curve]
Cc1ccsc1/C=N/NC(=O)c1nnn(-c2nonc2N)c1C |  | inconclusive: 25.1 µM [inhibitor, single point]
COCC1CCCC1OS(N)(=O)=O (configuration not stated) | inactive: -17.5% | 

Rewritten as comma-separated lines: entries from further up.
SMILES,"activity change, negative = inhibition",Potency
Cc1ccc(-c2nc(-c3ccc(Cl)cc3)sc2CC(=O)O)c(C)c1,,"inconclusive: 35.5 µM [activator, single point]"
CCCC[C@@H]1C[C@H]1C(NC(=O)c1ccccc1)c1ccc(C(F)(F)F)cc1 (some centres not stated),,active: 15.8 µM
COc1cc(/C=N/N(C)C)cc(Br)c1O,,"inconclusive: 35.5 µM [activator, partial curve, poor fit]"
CCCN(S(=O)(=O)c1ccccc1F)S(=O)(=O)c1ccccc1Br,inactive: -13.9%,
COc1ccc(NC(=O)c2ccc3ccccc3c2)cc1NS(=O)(=O)c1ccc(F)cc1,,"inconclusive: 7.08 µM [activator, full curve, poor fit]"
O=C1C2C3C=CC(C4CC34)C2C(=O)N1/N=C/c1ccc([N+](=O)[O-])o1 (configuration not stated),,active: 12.6 µM
COc1ccc(NC(=O)c2cc3n(n2)C(C(F)(F)F)CC(c2ccco2)N3)cc1 (configuration not stated),,"inconclusive: 35.5 µM [activator, single point]"
O=C1CSC(=S)N1/N=C/c1ccc(O)c([N+](=O)[O-])c1,,active: 8.91 µM
Fc1ccccc1/C=N/n1c(C2CCCCC2)n[nH]c1=S,,active: 11.2 µM
COC(=O)c1c(N)n(-c2ccc(N3CCOCC3)cc2)c2nc3ccccc3nc12,,"inconclusive: 35.5 µM [inhibitor, single point]"
O=C(COC(=O)C1CC1)Nc1ccc(Oc2ccccc2)cc1,,"inconclusive: 0.282 µM [activator, partial curve, poor fit]"
N#C/C(=C/c1ccccc1OCc1ccc(F)cc1)c1ccc(C(=O)O)cc1,,"inconclusive: 0.501 µM [inhibitor, single point]"
Cc1oc2cc(O)cc(O)c2c(=O)c1-c1ccc2c(c1)OCCCO2,,"inconclusive: 11.2 µM [activator, partial curve]"
Cc1ccsc1/C=N/NC(=O)c1nnn(-c2nonc2N)c1C,,"inconclusive: 25.1 µM [inhibitor, single point]"
COCC1CCCC1OS(N)(=O)=O (configuration not stated),inactive: -17.5%,

Next records:

SMILES | activity change, negative = inhibition | Potency
S=C(NCCc1c[nH]c2ccccc12)NC1CC1 |  | inconclusive: 12.6 µM [inhibitor, single point]
CCOc1ccc(C(=O)N[C@H](C(=O)Nc2cccc(S(=O)(=O)N3CCCCC3)c2)C(C)C)cc1 |  | inconclusive: 20 µM [activator, single point]
C=C(C)CSc1cc(C)c(C#N)c2nc3ccccc3n12 |  | inconclusive: 2.82 µM [inhibitor, full curve, poor fit]
Cn1c(=O)c(C(=O)NNC(=O)c2ccc(Br)cc2)c(O)c2ccccc21 |  | inconclusive: 15.8 µM [inhibitor, partial curve, poor fit]
Cc1ccn2cc(-c3ccc(Br)cc3)nc2c1 |  | active: 8.91 µM
CC(=O)N1c2ccc(S(=O)(=O)NCCC(=O)NCCc3ccc(C)cc3)cc2CC1C (configuration not stated) |  | inconclusive: 12.6 µM [activator, single point]
COc1ccc(NC(=O)c2c(C)nn(Cc3ccccc3)c2Cl)cc1S(=O)(=O)N1CCOCC1 |  | inconclusive: 11.2 µM [activator, partial curve]
CCCCNC(=O)CSc1nc2ccc(Nc3nc(N4CCOCC4)nc(N4CCOCC4)n3)cc2s1 | inactive: -8.82% | 
CC(/C=C/c1ccco1)=N\NC(=O)COc1ccc(C)c(C)c1 |  | inconclusive: 35.5 µM [inhibitor, single point]
CC(C)CCNC(=O)C1CCCN(S(=O)(=O)c2ccc(-n3cnnn3)cc2)C1 (configuration not stated) |  | inconclusive: 7.08 µM [inhibitor, single point]
O=C1CC(C(=O)N(c2ccc(F)cc2)C(C(=O)NC2CCCC2)c2ccccn2)CS1 (configuration not stated) | inactive: 6.1% | 
Cc1cccc(-n2cc(-c3ccccc3)[nH]c2=S)c1 |  | active: 2.51 µM
O=C(Nc1cccc(C(F)(F)F)c1)Oc1ccc(Cl)c2cccnc12 |  | active: 0.501 µM
C=CCNC(=S)NNC(=O)COc1ccc2cc(Br)ccc2c1 |  | active: 3.16 µM
CC1CCN(C(=O)C2Cc3ccccc3CN2S(=O)(=O)c2ccc(F)cc2)CC1 (configuration not stated) |  | inconclusive: 35.5 µM [activator, single point]
Cc1ccc2nc(Nc3ccc(F)cc3)c3nncn3c2c1 |  | inconclusive: 35.5 µM [inhibitor, single point]
CC(C)CCN1NC2(CCC(C)CC2)NC1=S (configuration not stated) |  | active: 7.08 µM
COc1ccc(Nc2nc(N3CCOCC3)nc(N3CCOCC3)n2)cc1 |  | inconclusive: 0.0891 µM [activator, full curve, poor fit]
COC(=O)c1ccc2c(=O)n(-c3ccccc3)c(=S)[nH]c2c1 |  | active: 1.78 µM
O=C(Cn1c(=S)[nH]c2ccccc2c1=O)N1CCc2ccccc2C1 | inactive: -15.4% | 
Cc1ccc(N2Cc3ccccc3C2=S)cc1 |  | inconclusive: 14.1 µM [inhibitor, single point]
COc1ccc(-c2cc(C(=O)NCc3ccc(Cl)cc3)no2)cc1OC |  | inconclusive: 35.5 µM [inhibitor, single point]
CCOc1ccc(NC(=O)CCC(=O)N/N=C(\C)c2cccs2)cc1 | inactive: -4.52% | 
COc1ccc(-c2n[nH]c(=S)n2Cc2ccccc2)cc1 |  | active: 7.94 µM

SMILES | activity change, negative = inhibition | Potency
CCNc1ncc2nc(-c3cn(C)c4ccccc34)c(=O)n(Cc3ccc(F)cc3)c2n1 | inactive: -16.3% | 
Cc1ccc(C)c(/C=N/NC(=S)NC(C)C)c1 |  | active: 2.24 µM
CC1CCN(C(=O)c2ccc(NS(C)(=O)=O)cc2)CC1 | inactive: -0.531% | 
COc1cc(/C=C(\C#N)C(=O)c2c(C)[nH]c3ccccc23)cc(OC)c1OC |  | inconclusive: 31.6 µM [activator, single point]
COc1ccc(-c2oc3ccc(C)cc3c(=O)c2O)cc1OC |  | active: 5.01 µM
COc1ccc(-c2cc(C(F)(F)F)nc(SCC(=O)N3CCOCC3)n2)cc1OC |  | inconclusive: 35.5 µM [inhibitor, single point]
CC(=O)OC1C[C@]2(C)[C@@H](CC(O)C3[C@]4(C)CCC(O)C(C)[C@@H]4CC[C@]32C)/C1=C(/CCC=C(C)C)C(=O)O (some centres not stated) | inactive: 14.3% | 
Cc1nc(N/N=C/c2ccccc2)nc(N(C)c2ccccc2)c1[N+](=O)[O-] | inactive: -2.01% | 
Brc1ccc(-c2csc(NC3=NCCCCC3)n2)cc1 | inactive: -4.24% | 
COc1cccc(/C=N\NC(=O)Cn2nnc3ccccc32)c1O |  | active: 1.26 µM
COc1ccc(-c2noc(CN(Cc3nccn3C)C(C)C)n2)cc1 |  | inconclusive: 1.26 µM [inhibitor, partial curve]
Clc1ccc(-c2ccnc(Oc3cc(Cl)ccc3Cl)n2)cc1 |  | inconclusive: 35.5 µM [inhibitor, single point]
Cc1ccnc(NC(=O)/C=C/c2cccs2)c1 |  | active: 8.91 µM
O=C(Nc1ccccc1)Nc1nnc(-c2cccs2)s1 |  | inconclusive: 1.58 µM [activator, single point]
COc1ccc(CCNC(=S)NC(=O)c2cccc([N+](=O)[O-])c2)cc1OC |  | active: 12.6 µM
CCCc1cc(=O)oc2c(CN(CC)CC)c(O)c(Cl)cc12 | inactive: -3.07% | 
O=C(CN(Cc1ccccc1)S(=O)(=O)c1ccccc1)N/N=C/c1ccc([N+](=O)[O-])cc1 |  | inconclusive: 14.1 µM [activator, partial curve]
O=C(NCc1ccc(F)cc1)C1CCCN(c2nc3ccsc3c(=O)s2)C1 (configuration not stated) | inactive: -18.5% | 
O=C(Nc1ccccc1Oc1ccccc1)c1cc([N+](=O)[O-])ccc1Cl |  | inconclusive: 39.8 µM [inhibitor, partial curve, poor fit]
CCn1ncc2c1C(=O)NC1c3ccccc3C(=O)N21 (configuration not stated) |  | inconclusive: 6.31 µM [inhibitor, single point]
C/C(=N\NC(=O)CNC(=O)c1cccs1)c1ccc(Cl)c(Cl)c1 | inactive: 8.52% | 
CC[C@H](NC(=O)c1c(C)c(-c2ccccc2)nc2ccccc12)c1ccccc1 |  | inconclusive: 1.58 µM [activator, single point]
CCc1ccc(CN(C)C(=O)c2cc(COc3cccc(C(F)(F)F)c3)on2)nc1 |  | inconclusive: 35.5 µM [activator, single point]
COc1cc(/C=C/c2ccc(O)cc2)cc(OC)c1 |  | inconclusive: 8.91 µM [inhibitor, partial curve]
